Measured values from PMC10949515 (Journal of Virology, 2024).
No constants are given. Whether binding was seen depends on the method and setting. For part of these data: Binding seen in cells or lysates may run through a third protein. Some binding calls cover weakened binding; strength is not graded here. For part of these data: Sequences can lack the tags named with a protein.

B1: FLNB R22–24 dimerization-deficient mutant (M2544E, L2546D), His6-tagged (domain or fragment, UniProt O75369 2282-2601)
chain: APSDDARRLTVMSLQESGLKVNQPASFAIRLNGAKGKIDAKVHSPSGAVEECHVSELEPDKYAVRFIPHENGVHTIDVKFNGSHVVGSPFKVRVGEPGQAGNPALVSAYGTGLEGGTTGIQSEFFINTTRAGPGTLSVTIEGPSKVKMDCQETPEGYKVMYTPMAPGNYLISVKYGGPNHIVGSPFKAKVTGQRLVSPGSANETSSILVESVTRSSTETCYSAIPKASSDASKVTSKGAGLSKAFVGQKSSFLVDCSKAGSNELDIGVHGPTTPCEEVSMKHVGNQQYNVTYVVKERGDYVLAVKWGEEHIPGSPFHVTV

What was measured:
[1] = target: HA-tagged C4 (Vaccinia virus strain Western Reserve) (UniProt P17370); test: co-IP
[2] = target: FLNB R22–24 dimerization-deficient mutant (M2544E, L2546D), His6-tagged (human) (UniProt O75369)

Row | Molecule | binding [1] | binding [2]
1 | HA-tagged C4 (from UniProt P17370 1-316) | binds | –
2 | endogenous Ku heterodimer (Ku70 and Ku80) (from UniProt P12956 1-609; P13010 1-732) (complex) | binds | –
3 | B1 | – | no binding (tested: 100 µL protein at 1 mg/mL)
